Data as given in PubChem BioAssay AID1259254 (NCATS, 2017).

- Test: 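Genome-wide screen for genes that prevent DNA re-replication in cancer cells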 (primary screen)
- System: human HCT116 colorectal cancer cells
- Reagent: single siRNA against human genes
- Duration: 3 days
- Read-out: 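Nuclei stained with Hoechst and imaged; cell-cycle phase assigned by DNA content; G2 share scaled per plate, non-targeting siRNA 0%, GMNN siRNA 100%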
- Direction: G2 robust z-score: higher = more G2 cells, more excess DNA replication
- Rule for the call: 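Active siRNAs have a G2 robust z of 5 or more median absolute deviations over the median, which in these data means about 38% or higher of GMNN control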
Here is an unselected part of about 59,000 reagents. In the full data, about 1,550 (2.6%) were called active. 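G2 share is only a proxy for re-replication; each gene was hit by three separate siRNAs, and active genes were retested.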 Reagents against one gene are numbered here. Further read-outs or replicates are left out here. The record does not give: the amount of reagent.

G2 robust z-score, by target gene and reagent
ATP6V1A: #1 -1.09 inactive; #2 -0.971 inactive; #3 -0.52 inactive
PA2G4: #1 -1.05 inactive; #2 -0.904 inactive; #3 0.386 inactive
SCD5: #1 -1.01 inactive; #2 0.238 inactive; #3 -0.14 inactive
ZNF567: #1 -0.0332 inactive; #2 0.595 inactive; #3 -0.0721 inactive
GLI3: #1 1.74 inactive; #2 -1.19 inactive; #3 -0.557 inactive
HMGB1: #1 -0.539 inactive; #2 2.94 inactive; #3 0.0707 inactive

Copied from above, 7 entries:
G2 robust z-score, by target gene and reagent
ATP6V1A: #3 -0.52 inactive
PA2G4: #1 -1.05 inactive; #2 -0.904 inactive; #3 0.386 inactive
SCD5: #1 -1.01 inactive; #2 0.238 inactive; #3 -0.14 inactive

More entries:
G2 robust z-score, by target gene and reagent
DYSF: #1 -0.819 inactive; #2 12.3 active; #3 -0.316 inactive
RAB11A: #1 2.57 inactive; #2 0.401 inactive; #3 -0.288 inactive
PPIC: #1 -0.557 inactive; #2 0.901 inactive; #3 0.267 inactive
RAB23: #1 -0.373 inactive; #2 1.15 inactive; #3 -0.93 inactive
ZNF616: #1 0.926 inactive; #2 0.17 inactive; #3 -0.139 inactive
LTBP1: #1 -0.762 inactive; #2 -0.374 inactive; #3 2.47 inactive
WLS: #1 1.77 inactive; #2 -0.236 inactive; #3 4.75 inactive
ABRAXAS2: #1 0.236 inactive; #2 -0.942 inactive; #3 -0.507 inactive
ATP9B: #1 -0.15 inactive; #2 -0.673 inactive; #3 -0.945 inactive
ZC3H4: #1 -0.0287 inactive; #2 0.821 inactive; #3 -0.238 inactive
